PubChem BioAssay AID743121 | NCATS | 2013
This is a random part of about 26,000 deposited reagents. Over the whole deposit, 167 (0.63%) are marked active. 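Calls are per gene from RSA p-values that are not deposited; an individual active-marked siRNA can sensitise only weakly.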 The numbers tell different reagents against one gene apart. Not all columns of the deposit are shown. Reagent sequences are not shown.

Screen: 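Genes whose silencing strengthens cell killing by camptothecin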 (primary screen)
Cells: MDA-MB-231 cells, a human breast cancer line
Reagent: single siRNA against human genes, 20 nM siRNA (0.8 pmol per well)
Timing: 120 h (drug added 48 h after transfection, read 72 h later)
Conditions: camptothecin 20 nM (about EC30) for 72 h; vehicle 0.1% DMSO in parallel plates
Read-out: 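Cell viability by ATP luminescence (CellTiter-Glo) as % of non-targeting siRNA wells, and the log2 ratio of viability without drug over viability with camptothecin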
Reading the numbers: log2 vehicle/camptothecin viability: higher = stronger sensitisation to camptothecin
Rule for the call: 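Active genes have an RSA gene-level p-value below 0.001, computed from the ratios of their separate siRNAs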

| target gene | reagent no. | log2 vehicle/camptothecin viability | call |
| --- | --- | --- | --- |
| HMGCS1 (3-hydroxy-3-methylglutaryl-CoA synthase 1) | 1 | 0.0437 | inactive |
| HMGCS1 (3-hydroxy-3-methylglutaryl-CoA synthase 1) | 2 | 0.4 | inactive |
| HMGCS1 (3-hydroxy-3-methylglutaryl-CoA synthase 1) | 3 | -0.752 | inactive |
| HMGCS1 (3-hydroxy-3-methylglutaryl-CoA synthase 1) | 4 | 0.14 | inactive |
| OR2T12 (olfactory receptor family 2 subfamily T member 12) | 1 | -0.495 | inactive |
| ZACN (zinc activated ion channel) | 1 | -0.16 | inactive |
| ZACN (zinc activated ion channel) | 2 | -0.314 | inactive |
| ZACN (zinc activated ion channel) | 3 | 0.236 | inactive |
| NME1 (NME/NM23 nucleoside diphosphate kinase 1) | 1 | 0.0632 | inactive |
| NME1 (NME/NM23 nucleoside diphosphate kinase 1) | 2 | 0.033 | inactive |
| NME1 (NME/NM23 nucleoside diphosphate kinase 1) | 3 | -0.346 | inactive |
| NME1 (NME/NM23 nucleoside diphosphate kinase 1) | 4 | -0.355 | inactive |
| FBXW12 (F-box and WD repeat domain containing 12) | 1 | -0.116 | inactive |
| FBXW12 (F-box and WD repeat domain containing 12) | 2 | 0.444 | inactive |
| FBXW12 (F-box and WD repeat domain containing 12) | 3 | -0.201 | inactive |
| FBXW12 (F-box and WD repeat domain containing 12) | 4 | -0.375 | inactive |
| MINPP1 (multiple inositol-polyphosphate phosphatase 1) | 1 | -0.241 | inactive |
| MINPP1 (multiple inositol-polyphosphate phosphatase 1) | 2 | 0.138 | inactive |
| MINPP1 (multiple inositol-polyphosphate phosphatase 1) | 3 | -0.265 | inactive |
| MINPP1 (multiple inositol-polyphosphate phosphatase 1) | 4 | -0.0263 | inactive |
| PIK3C2A | 1 | -0.19 | inactive |
| PIK3C2A | 2 | -0.0385 | inactive |
| PIK3C2A | 3 | -0.0532 | inactive |
| PIK3C2A | 4 | 0.149 | inactive |
| MAPK14 (mitogen-activated protein kinase 14) | 1 | -0.182 | inactive |
| MAPK14 (mitogen-activated protein kinase 14) | 2 | -0.282 | inactive |
| MAPK14 (mitogen-activated protein kinase 14) | 3 | -0.239 | inactive |
| MAPK14 (mitogen-activated protein kinase 14) | 4 | -0.221 | inactive |
| CCNB1 (cyclin B1) | 1 | -0.146 | inactive |
| CCNB1 (cyclin B1) | 2 | -0.392 | inactive |
| CCNB1 (cyclin B1) | 3 | -0.156 | inactive |
| CCNB1 (cyclin B1) | 4 | -0.399 | inactive |
| PRLR (prolactin receptor) | 1 | 0.141 | inactive |
| PRLR (prolactin receptor) | 2 | -0.306 | inactive |
| PRLR (prolactin receptor) | 3 | 0.35 | inactive |
| PRLR (prolactin receptor) | 4 | 0.0598 | inactive |
| MOGS (mannosyl-oligosaccharide glucosidase) | 1 | -0.569 | inactive |
| MOGS (mannosyl-oligosaccharide glucosidase) | 2 | 0.224 | inactive |
| MOGS (mannosyl-oligosaccharide glucosidase) | 3 | 0.0843 | inactive |
| MOGS (mannosyl-oligosaccharide glucosidase) | 4 | 0.25 | inactive |
| CDC20B (cell division cycle 20B) | 1 | -0.331 | inactive |
| CDC20B (cell division cycle 20B) | 2 | -0.363 | inactive |
| CDC20B (cell division cycle 20B) | 3 | -0.227 | inactive |
| CDC20B (cell division cycle 20B) | 4 | 0.57 | inactive |

Records listed so far whose target name begins with N or n (4):
| target gene | reagent no. | log2 vehicle/camptothecin viability | call |
| --- | --- | --- | --- |
| NME1 (NME/NM23 nucleoside diphosphate kinase 1) | 1 | 0.0632 | inactive |
| NME1 (NME/NM23 nucleoside diphosphate kinase 1) | 2 | 0.033 | inactive |
| NME1 (NME/NM23 nucleoside diphosphate kinase 1) | 3 | -0.346 | inactive |
| NME1 (NME/NM23 nucleoside diphosphate kinase 1) | 4 | -0.355 | inactive |

Next results follow:
| target gene | reagent no. | log2 vehicle/camptothecin viability | call |
| --- | --- | --- | --- |
| CACNG5 (calcium voltage-gated channel auxiliary subunit gamma 5) | 1 | 0.47 | inactive |
| CACNG5 (calcium voltage-gated channel auxiliary subunit gamma 5) | 2 | -0.142 | inactive |
| CACNG5 (calcium voltage-gated channel auxiliary subunit gamma 5) | 3 | -0.181 | inactive |
| CACNG5 (calcium voltage-gated channel auxiliary subunit gamma 5) | 4 | 0.493 | inactive |
| MSH3 (mutS homolog 3) | 1 | -0.349 | inactive |
| MSH3 (mutS homolog 3) | 2 | 0.391 | inactive |
| MSH3 (mutS homolog 3) | 3 | 0.131 | inactive |
| FKBP15 (FKBP prolyl isomerase family member 15) | 1 | 0.104 | inactive |
| FKBP15 (FKBP prolyl isomerase family member 15) | 2 | -0.248 | inactive |
| FKBP15 (FKBP prolyl isomerase family member 15) | 3 | -0.197 | inactive |
| FKBP15 (FKBP prolyl isomerase family member 15) | 4 | -0.0868 | inactive |
| CENPB (centromere protein B) | 1 | -0.208 | inactive |
| CENPB (centromere protein B) | 2 | -0.171 | inactive |
| CENPB (centromere protein B) | 3 | 0.00534 | inactive |
| CENPB (centromere protein B) | 4 | -0.011 | inactive |
| PGA5 (pepsinogen A5) | 1 | -0.594 | inactive |
| PGA5 (pepsinogen A5) | 2 | -0.225 | inactive |
| PGA5 (pepsinogen A5) | 3 | -0.18 | inactive |
| PGA5 (pepsinogen A5) | 4 | -0.00901 | inactive |
| TGIF1 (TGFB induced factor homeobox 1) | 1 | -0.101 | inactive |
| TGIF1 (TGFB induced factor homeobox 1) | 2 | -0.172 | inactive |
| TGIF1 (TGFB induced factor homeobox 1) | 3 | -0.72 | inactive |
| EFNA3 (ephrin A3) | 1 | -0.314 | inactive |
| EFNA3 (ephrin A3) | 2 | 0.199 | inactive |
| EFNA3 (ephrin A3) | 3 | 0.0943 | inactive |
| EFNA3 (ephrin A3) | 4 | 0.244 | inactive |
